Test results: article PMC10709431
These are yes or no findings as the source states them, for the method shown. Binding seen in cells or lysates may run through a third protein. Here binding means that the protein was enriched with, or labelled near, the bait; the list need not be complete. No binding means not detected with the bait. Tags and fused reporters may be left off the sequences shown.

Chains of the proteins cited; added tags and fusions are not shown. Residues count along the entry.
UniProt Q13131: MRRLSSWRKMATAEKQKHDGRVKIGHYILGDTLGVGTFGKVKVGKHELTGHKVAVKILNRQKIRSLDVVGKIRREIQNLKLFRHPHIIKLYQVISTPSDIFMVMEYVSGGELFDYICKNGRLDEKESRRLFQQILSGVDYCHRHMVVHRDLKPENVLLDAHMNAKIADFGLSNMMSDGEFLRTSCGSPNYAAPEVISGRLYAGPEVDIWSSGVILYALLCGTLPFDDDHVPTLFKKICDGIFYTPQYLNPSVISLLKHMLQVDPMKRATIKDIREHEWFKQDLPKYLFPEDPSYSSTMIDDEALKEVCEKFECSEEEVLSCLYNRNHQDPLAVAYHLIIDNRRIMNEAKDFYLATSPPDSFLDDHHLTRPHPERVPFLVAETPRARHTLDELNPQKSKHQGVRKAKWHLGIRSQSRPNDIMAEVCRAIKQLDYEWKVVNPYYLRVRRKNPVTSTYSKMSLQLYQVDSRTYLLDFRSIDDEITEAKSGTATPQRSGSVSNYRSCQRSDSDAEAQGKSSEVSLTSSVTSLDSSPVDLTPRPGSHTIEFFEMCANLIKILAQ
UniProt Q9UGJ0: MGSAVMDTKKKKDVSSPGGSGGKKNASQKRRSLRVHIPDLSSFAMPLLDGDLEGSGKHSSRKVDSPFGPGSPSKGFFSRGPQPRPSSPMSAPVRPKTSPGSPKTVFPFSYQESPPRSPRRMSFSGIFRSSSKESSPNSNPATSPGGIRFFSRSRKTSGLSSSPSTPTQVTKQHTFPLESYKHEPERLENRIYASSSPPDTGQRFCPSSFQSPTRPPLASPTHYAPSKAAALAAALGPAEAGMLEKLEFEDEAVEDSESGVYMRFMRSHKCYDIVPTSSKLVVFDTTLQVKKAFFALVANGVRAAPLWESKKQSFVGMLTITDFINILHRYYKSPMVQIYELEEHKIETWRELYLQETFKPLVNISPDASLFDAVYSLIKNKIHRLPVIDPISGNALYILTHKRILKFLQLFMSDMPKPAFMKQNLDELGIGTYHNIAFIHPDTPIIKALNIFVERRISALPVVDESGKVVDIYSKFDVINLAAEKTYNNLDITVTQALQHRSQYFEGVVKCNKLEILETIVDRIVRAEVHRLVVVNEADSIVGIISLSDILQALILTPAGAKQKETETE
UniProt Q9UJ70: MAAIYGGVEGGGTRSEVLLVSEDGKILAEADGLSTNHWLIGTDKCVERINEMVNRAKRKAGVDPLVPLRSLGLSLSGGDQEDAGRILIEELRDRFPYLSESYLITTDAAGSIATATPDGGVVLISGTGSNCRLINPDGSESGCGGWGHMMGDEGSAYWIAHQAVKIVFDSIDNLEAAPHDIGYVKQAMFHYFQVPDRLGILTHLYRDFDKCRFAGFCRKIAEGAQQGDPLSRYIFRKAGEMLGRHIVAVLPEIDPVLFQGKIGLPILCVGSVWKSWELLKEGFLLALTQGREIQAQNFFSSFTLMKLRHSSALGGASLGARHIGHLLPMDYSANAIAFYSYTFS
UniProt Q13547: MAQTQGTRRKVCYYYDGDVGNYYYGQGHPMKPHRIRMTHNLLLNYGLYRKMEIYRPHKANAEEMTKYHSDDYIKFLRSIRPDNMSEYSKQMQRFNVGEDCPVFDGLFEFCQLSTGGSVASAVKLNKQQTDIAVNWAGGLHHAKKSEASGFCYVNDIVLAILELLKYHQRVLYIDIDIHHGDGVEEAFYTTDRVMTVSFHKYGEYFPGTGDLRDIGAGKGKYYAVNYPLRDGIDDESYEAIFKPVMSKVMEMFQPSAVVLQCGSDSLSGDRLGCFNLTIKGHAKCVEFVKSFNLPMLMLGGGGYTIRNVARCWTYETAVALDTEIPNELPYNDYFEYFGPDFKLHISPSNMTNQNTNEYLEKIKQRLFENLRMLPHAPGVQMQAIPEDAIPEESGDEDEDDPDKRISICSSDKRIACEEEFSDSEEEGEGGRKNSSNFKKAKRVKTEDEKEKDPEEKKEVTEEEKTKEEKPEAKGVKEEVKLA
UniProt Q93009: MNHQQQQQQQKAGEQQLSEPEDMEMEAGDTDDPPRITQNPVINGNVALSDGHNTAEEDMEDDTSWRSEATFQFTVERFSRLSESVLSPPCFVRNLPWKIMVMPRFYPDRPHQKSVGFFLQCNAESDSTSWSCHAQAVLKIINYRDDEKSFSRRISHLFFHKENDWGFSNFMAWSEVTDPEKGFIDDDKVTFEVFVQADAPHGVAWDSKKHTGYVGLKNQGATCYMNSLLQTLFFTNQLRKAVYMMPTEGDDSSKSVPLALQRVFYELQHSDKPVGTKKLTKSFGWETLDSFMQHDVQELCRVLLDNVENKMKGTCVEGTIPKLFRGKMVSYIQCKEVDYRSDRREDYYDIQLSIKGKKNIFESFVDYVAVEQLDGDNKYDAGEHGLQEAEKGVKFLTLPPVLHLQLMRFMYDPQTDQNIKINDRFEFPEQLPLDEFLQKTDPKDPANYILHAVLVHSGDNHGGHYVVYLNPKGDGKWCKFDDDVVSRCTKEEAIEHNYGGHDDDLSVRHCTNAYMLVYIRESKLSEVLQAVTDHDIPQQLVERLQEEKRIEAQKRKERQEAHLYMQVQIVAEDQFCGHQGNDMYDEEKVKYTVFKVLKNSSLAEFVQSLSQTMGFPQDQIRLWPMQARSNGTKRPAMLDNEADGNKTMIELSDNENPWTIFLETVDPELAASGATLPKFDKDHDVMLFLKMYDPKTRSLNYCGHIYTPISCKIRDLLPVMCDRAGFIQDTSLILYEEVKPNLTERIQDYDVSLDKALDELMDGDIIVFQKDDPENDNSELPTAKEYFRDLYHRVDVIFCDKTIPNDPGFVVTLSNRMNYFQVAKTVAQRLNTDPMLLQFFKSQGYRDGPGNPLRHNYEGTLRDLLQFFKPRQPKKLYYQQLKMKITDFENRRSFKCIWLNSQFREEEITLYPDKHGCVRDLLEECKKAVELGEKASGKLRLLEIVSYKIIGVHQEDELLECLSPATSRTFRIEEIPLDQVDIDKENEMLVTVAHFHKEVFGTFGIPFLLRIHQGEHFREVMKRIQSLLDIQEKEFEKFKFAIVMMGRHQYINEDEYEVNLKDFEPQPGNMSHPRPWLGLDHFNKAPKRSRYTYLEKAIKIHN
UniProt P27986: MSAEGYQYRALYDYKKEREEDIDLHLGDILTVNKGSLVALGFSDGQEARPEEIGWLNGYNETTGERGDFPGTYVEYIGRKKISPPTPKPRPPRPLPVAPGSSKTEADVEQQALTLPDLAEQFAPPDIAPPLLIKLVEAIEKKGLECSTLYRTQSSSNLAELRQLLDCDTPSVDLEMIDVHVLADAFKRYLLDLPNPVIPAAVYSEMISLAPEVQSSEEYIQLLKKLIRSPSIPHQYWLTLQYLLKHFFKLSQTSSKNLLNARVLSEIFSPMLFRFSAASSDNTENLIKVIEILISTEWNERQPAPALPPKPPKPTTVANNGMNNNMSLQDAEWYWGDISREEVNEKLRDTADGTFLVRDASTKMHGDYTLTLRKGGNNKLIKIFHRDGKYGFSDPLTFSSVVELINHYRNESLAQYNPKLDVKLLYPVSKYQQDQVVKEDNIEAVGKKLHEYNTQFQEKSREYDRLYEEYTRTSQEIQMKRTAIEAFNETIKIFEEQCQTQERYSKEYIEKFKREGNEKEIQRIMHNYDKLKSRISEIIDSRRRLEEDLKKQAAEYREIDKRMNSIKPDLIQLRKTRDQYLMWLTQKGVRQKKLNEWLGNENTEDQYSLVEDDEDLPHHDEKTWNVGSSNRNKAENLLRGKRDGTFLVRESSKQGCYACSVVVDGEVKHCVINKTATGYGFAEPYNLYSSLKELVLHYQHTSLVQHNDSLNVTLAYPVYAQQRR
UniProt Q06210: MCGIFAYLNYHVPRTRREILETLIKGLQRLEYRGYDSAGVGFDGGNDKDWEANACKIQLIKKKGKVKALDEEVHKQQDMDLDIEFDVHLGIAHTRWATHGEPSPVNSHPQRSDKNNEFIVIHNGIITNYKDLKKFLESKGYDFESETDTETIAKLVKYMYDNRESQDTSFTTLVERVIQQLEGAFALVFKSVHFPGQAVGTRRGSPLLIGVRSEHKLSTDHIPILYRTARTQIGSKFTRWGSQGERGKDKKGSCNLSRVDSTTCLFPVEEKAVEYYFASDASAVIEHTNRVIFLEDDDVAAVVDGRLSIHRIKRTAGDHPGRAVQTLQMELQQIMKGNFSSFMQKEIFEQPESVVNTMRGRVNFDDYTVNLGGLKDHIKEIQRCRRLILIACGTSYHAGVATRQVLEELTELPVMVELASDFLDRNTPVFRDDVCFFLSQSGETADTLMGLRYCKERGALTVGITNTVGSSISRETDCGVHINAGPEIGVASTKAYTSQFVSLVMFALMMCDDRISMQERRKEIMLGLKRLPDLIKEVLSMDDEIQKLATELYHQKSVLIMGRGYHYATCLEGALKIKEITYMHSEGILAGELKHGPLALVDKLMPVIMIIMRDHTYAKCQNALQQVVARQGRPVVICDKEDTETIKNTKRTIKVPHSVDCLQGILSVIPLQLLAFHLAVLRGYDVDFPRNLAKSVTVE
UniProt P55854, residues 1-92: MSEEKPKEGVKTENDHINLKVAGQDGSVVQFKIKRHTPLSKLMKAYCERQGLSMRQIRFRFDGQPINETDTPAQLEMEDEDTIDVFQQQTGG

Target: AMPKα1 bait of the TurboID proximity labeling assay (UniProt Q13131)
Assay: proximity labelling; TurboID with AMPKα1; 100 μM biotin for 10 min at 37 °C, biotin-labeled proteins purified on streptavidin magnetic beads, western blot and mass spectrometry

| Molecule | binding |
| --- | --- |
| AMPKγ2 (from UniProt Q9UGJ0 1-569) | binds |
| GNK (N-acetyl-D-glucosamine kinase) (from UniProt Q9UJ70 1-344) (enzyme) | no binding |
| HDAC1 (from UniProt Q13547 1-482) | binds |
| USP7 (from UniProt Q93009 1-1102) | binds |
| PIK3R1 (from UniProt P27986 1-724) | binds |
| glutamine fructose-6-phosphate aminotransferase 1 (GFAT1) (from UniProt Q06210 1-699) (enzyme) | binds |
| hexokinase (HK) (enzyme, UniProt P19367 1-917) MIAAQLLAYYFTELKDDQVKKIDKYLYAMRLSDETLIDIMTRFRKEMKNGLSRDFNPTATVKMLPTFVRSIPDGSEKGDFIALDLGGSSFRILRVQVNHEKNQNVHMESEVYDTPENIVHGSGSQLFDHVAECLGDFMEKRKIKDKKLPVGFTFSFPCQQSKIDEAILITWTKRFKASGVEGADVVKLLNKAIKKRGDYDANIVAVVNDTVGTMMTCGYDDQHCEVGLIIGTGTNACYMEELRHIDLVEGDEGRMCINTEWGAFGDDGSLEDIRTEFDREIDRGSLNPGKQLFEKMVSGMYLGELVRLILVKMAKEGLLFEGRITPELLTRGKFNTSDVSAIEKNKEGLHNAKEILTRLGVEPSDDDCVSVQHVCTIVSFRSANLVAATLGAILNRLRDNKGTPRLRTTVGVDGSLYKTHPQYSRRFHKTLRRLVPDSDVRFLLSESGSGKGAAMVTAVAYRLAEQHRQIEETLAHFHLTKDMLLEVKKRMRAEMELGLRKQTHNNAVVKMLPSFVRRTPDGTENGDFLALDLGGTNFRVLLVKIRSGKKRTVEMHNKIYAIPIEIMQGTGEELFDHIVSCISDFLDYMGIKGPRMPLGFTFSFPCQQTSLDAGILITWTKGFKATDCVGHDVVTLLRDAIKRREEFDLDVVAVVNDTVGTMMTCAYEEPTCEVGLIVGTGSNACYMEEMKNVEMVEGDQGQMCINMEWGAFGDNGCLDDIRTHYDRLVDEYSLNAGKQRYEKMISGMYLGEIVRNILIDFTKKGFLFRGQISETLKTRGIFETKFLSQIESDRLALLQVRAILQQLGLNSTCDDSILVKTVCGVVSRRAAQLCGAGMAAVVDKIRENRGLDRLNVTVGVDGTLYKLHPHFSRIMHQTVKELSPKCNVSFLLSEDGSGKGAALITAVGVRLRTEASS | no binding |
| P73 (protein, UniProt O15350 1-636) MAQSTATSPDGGTTFEHLWSSLEPDSTYFDLPQSSRGNNEVVGGTDSSMDVFHLEGMTTSVMAQFNLLSSTMDQMSSRAASASPYTPEHAASVPTHSPYAQPSSTFDTMSPAPVIPSNTDYPGPHHFEVTFQQSSTAKSATWTYSPLLKKLYCQIAKTCPIQIKVSTPPPPGTAIRAMPVYKKAEHVTDVVKRCPNHELGRDFNEGQSAPASHLIRVEGNNLSQYVDDPVTGRQSVVVPYEPPQVGTEFTTILYNFMCNSSCVGGMNRRPILIIITLEMRDGQVLGRRSFEGRICACPGRDRKADEDHYREQQALNESSAKNGAASKRAFKQSPPAVPALGAGVKKRRHGDEDTYYLQVRGRENFEILMKLKESLELMELVPQPLVDSYRQQQQLLQRPSHLQPPSYGPVLSPMNKVHGGMNKLPSVNQLVGQPPPHSSAATPNLGPVGPGMLNNHGHAVPANGEMSSSHSAQSMVSGSHCTPPPPYHADPSLVSFLTGLGCPNCIEYFTSQGLQSIYHLQNLTIEDLGALKIPEQYRMTIWRGLQDLKQGHDYSTAQQLLRSSNAATISIGGSGELQRQRVMEAVHFRVRHTITIPNRGGPGGGPDEWADFGFDLPDCKARKQPIKEEFTEAEIH | binds |

The remaining lines, values ahead:

| binding | Molecule |
| --- | --- |
| binds | SUMO3 (from UniProt P55854 1-92) |
| binds | CAB39 (protein, UniProt Q9Y376 1-341) MPFPFGKSHKSPADIVKNLKESMAVLEKQDISDKKAEKATEEVSKNLVAMKEILYGTNEKEPQTEAVAQLAQELYNSGLLSTLVADLQLIDFEGKKDVAQIFNNILRRQIGTRTPTVEYICTQQNILFMLLKGYESPEIALNCGIMLRECIRHEPLAKIILWSEQFYDFFRYVEMSTFDIASDAFATFKDLLTRHKLLSAEFLEQHYDRFFSEYEKLLHSENYVTKRQSLKLLGELLLDRHNFTIMTKYISKPENLKLMMNLLRDKSRNIQFEAFHVFKVFVANPNKTQPILDILLKNQAKLIEFLSKFQNDRTEDEQFNDEKTYLVKQIRDLKRPAQQEA |
| binds | glucosamine-phosphate N-acetyltransferase 1 (GNPNAT1) (enzyme, UniProt Q96EK6 1-184) MKPDETPMFDPSLLKEVDWSQNTATFSPAISPTHPGEGLVLRPLCTADLNRGFFKVLGQLTETGVVSPEQFMKSFEHMKKSGDYYVTVVEDVTLGQIVATATLIIEHKFIHSCAKRGRVEDVVVSDECRGKQLGKLLLSTLTLLSKKLNCYKITLECLPQNVGFYKKFGYTVSEENYMCRRFLK |
| binds | HOMER1 (protein, UniProt Q86YM7 1-354) MGEQPIFSTRAHVFQIDPNTKKNWVPTSKHAVTVSYFYDSTRNVYRIISLDGSKAIINSTITPNMTFTKTSQKFGQWADSRANTVYGLGFSSEHHLSKFAEKFQEFKEAARLAKEKSQEKMELTSTPSQESAGGDLQSPLTPESINGTDDERTPDVTQNSEPRAEPTQNALPFSHSSAISKHWEAELATLKGNNAKLTAALLESTANVKQWKQQLAAYQEEAERLHKRVTELECVSSQANAVHTHKTELNQTIQELEETLKLKEEEIERLKQEIDNARELQEQRDSLTQKLQEVEIRNKDLEGQLSDLEQRLEKSQNEQEAFRNNLKTLLEILDGKIFELTELRDNLAKLLECS |
